Results from PMC10761945.
These are yes or no findings as the source states them, for the method shown. In cells and extracts the contact can be indirect. Some results given as binding are weak or reduced against the parent protein; the word gives no strength.

The chains behind the UniProt entries cited, without tags or fusion partners.
UniProt Q01628: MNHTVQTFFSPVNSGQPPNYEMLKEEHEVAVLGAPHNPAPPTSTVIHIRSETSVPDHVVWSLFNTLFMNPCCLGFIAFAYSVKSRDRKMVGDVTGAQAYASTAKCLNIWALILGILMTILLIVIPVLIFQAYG
UniProt P42224: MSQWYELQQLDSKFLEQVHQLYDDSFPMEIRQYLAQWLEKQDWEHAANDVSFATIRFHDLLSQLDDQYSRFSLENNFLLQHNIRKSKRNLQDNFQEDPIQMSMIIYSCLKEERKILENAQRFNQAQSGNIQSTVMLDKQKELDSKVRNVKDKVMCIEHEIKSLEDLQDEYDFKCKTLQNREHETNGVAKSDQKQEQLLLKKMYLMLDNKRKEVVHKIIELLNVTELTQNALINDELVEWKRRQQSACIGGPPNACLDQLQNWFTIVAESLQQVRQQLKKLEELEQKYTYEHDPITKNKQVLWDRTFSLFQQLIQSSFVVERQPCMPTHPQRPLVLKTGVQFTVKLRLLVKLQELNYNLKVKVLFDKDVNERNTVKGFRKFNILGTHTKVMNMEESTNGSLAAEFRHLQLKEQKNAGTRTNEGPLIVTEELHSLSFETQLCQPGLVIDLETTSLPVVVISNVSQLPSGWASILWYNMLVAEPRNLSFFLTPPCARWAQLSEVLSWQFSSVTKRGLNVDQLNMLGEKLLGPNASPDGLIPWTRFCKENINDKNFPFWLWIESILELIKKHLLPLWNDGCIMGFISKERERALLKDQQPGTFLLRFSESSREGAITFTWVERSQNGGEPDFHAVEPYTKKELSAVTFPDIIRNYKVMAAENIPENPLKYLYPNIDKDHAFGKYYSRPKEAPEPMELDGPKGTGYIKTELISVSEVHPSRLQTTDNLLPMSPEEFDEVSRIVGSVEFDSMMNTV

What was measured:
Myc-tagged IFITM3 = Myc-tagged IFITM3 (UniProt Q01628); test: co-IP; IFITM3 and STAT1 in HEK293T cells (Supplementary Fig. 4b, c); bait and antibodies not told in the text shown
IFITM3 in Hela cells = IFITM3 in Hela cells (UniProt Q01628); test: co-IP; IFITM3 and STAT1 in Hela cells (Supplementary Fig. 4b, c); bait and antibodies not told in the text shown

Row | binding (Myc-tagged IFITM3) | binding (IFITM3 in Hela cells) | Substance
1 | binds |  | HA-tagged STAT1 (from UniProt P42224 1-750)
2 |  | binds | STAT1 in Hela cells (from UniProt P42224 1-750)
